One test deals with IDH1 R132H (Homo sapiens, UniProt O75874, R132H). Briefly: In vitro assay for IDH1 R132H inhibitors (NADPH/aKG, resazurin detection). To be noted: read-out: IC50, IDH1 R132H Inhibition; Table 4B; 0.2 μg/ml IDH1 R132H, 50 minutes at room temperature. Background: The colour change of resazurin is a common sign of viable cells or microbes.
For the next test, the system named is HT1080 cells. Briefly: Cellular assay: inhibition of 2-HG production in HT1080 cells (LC-MS, 48 hours). To be noted: read-out: HT1080 IC50, Inhibition of 2-HG Production, 2-HG in media by LC-MS.
For another test, the system named is U87MG cells. Briefly: Cellular assay: inhibition of 2-HG production in U87MG cells (LC-MS, 48 hours). Particulars: read-out: U87MG IC50, Inhibition of 2-HG Production, 2-HG in media by LC-MS.

Protein sequences, listed by entry. Tags and fused reporters are not part of them.
UniProt O75874, whole entry R132H: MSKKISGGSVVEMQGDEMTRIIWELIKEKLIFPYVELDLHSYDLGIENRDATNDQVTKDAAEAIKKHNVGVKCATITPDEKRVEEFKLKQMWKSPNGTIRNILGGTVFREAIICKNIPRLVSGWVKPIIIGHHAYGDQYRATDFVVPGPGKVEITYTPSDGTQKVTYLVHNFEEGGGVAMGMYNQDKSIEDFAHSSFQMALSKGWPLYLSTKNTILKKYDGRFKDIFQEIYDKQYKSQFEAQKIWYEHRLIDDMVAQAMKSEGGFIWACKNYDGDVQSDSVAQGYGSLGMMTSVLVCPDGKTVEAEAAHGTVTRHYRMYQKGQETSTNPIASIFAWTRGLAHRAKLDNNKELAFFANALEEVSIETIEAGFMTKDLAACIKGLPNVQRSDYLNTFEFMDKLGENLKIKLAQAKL

Structures were worked out from names or drawings and are uncertain.

As for `Cc1ccccc1C(C(=O)NC1CCCCC1)N(C(=O)Cn1ccnc1C)c1cccc(-c2cncnc2)c1` (stereo not drawn), the results for the IC50 on IDH1 R132H, in the test with HT1080 cells and in the test on U87MG cells were 0.1 to 1 µM, 1 to 5 µM and less than 0.25 µM, respectively.

The values above are taken from patent US20130184222A1, “THERAPEUTICALLY ACTIVE COMPOSITIONS AND THEIR METHODS OF USE” (AGIOS PHARMACEUTICALS, INC, priority 2010, published 2013).
